Measured data: PubChem BioAssay AID1259254 (NCATS, 2017)
Assay: 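Gene knock-downs that lead to re-replication, shown by excess G2 DNA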 (primary screen). Cell system: human HCT116 colorectal cancer cells. Knock-down reagent: single siRNA against human genes. Duration: 3 days. Measurement: 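Nuclei stained with Hoechst and imaged; cell-cycle phase assigned by DNA content; G2 share scaled per plate, non-targeting siRNA 0%, GMNN siRNA 100%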. Reading the numbers: G2 robust z-score and G2 cells, % of GMNN control: higher = more G2 cells, more excess DNA replication. Rule for the call: 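Active siRNAs have a G2 robust z of 5 or more median absolute deviations over the median, which in these data means about 38% or higher of GMNN control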.
Shown is an unselected part of about 59,000 reagents. Over the whole deposit, about 1,550 (2.6%) are marked active. 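G2 share is only a proxy for re-replication; each gene was hit by three separate siRNAs, and active genes were retested.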 The numbers tell different reagents against one gene apart. Not all columns of the deposit are shown. Not given: the amount of reagent.

With UGT2A1 #1, what does the deposit list?
G2 robust z-score: 0.874; G2 cells, % of GMNN control: 9.12; outcome: inactive

How did the screen score UGT2A1 #2?
G2 robust z-score: 0.946; G2 cells, % of GMNN control: 9.62; outcome: inactive

For UGT2A1 #3, how do the results read?
G2 robust z-score: -1.08; G2 cells, % of GMNN control: -4.66; outcome: inactive

How did the screen score CXCL10 #1?
G2 robust z-score: 0.0987; G2 cells, % of GMNN control: 3.66; outcome: inactive

What is on record for CXCL10 #2?
G2 robust z-score: 0.622; G2 cells, % of GMNN control: 7.34; outcome: inactive

With CXCL10 #3, what does the deposit list?
G2 robust z-score: 2.45; G2 cells, % of GMNN control: 20.2; outcome: inactive

For AKR1C3 #1, what does the deposit list?
G2 robust z-score: 0.486; G2 cells, % of GMNN control: 6.39; outcome: inactive

What did the screen give for AKR1C3 #2?
G2 robust z-score: -0.305; G2 cells, % of GMNN control: 0.82; outcome: inactive

Which result is listed for AKR1C3 #3?
G2 robust z-score: 1.71; G2 cells, % of GMNN control: 15; outcome: inactive

What is on record for LOC401410 (retired record) #1?
G2 robust z-score: -1.28; G2 cells, % of GMNN control: -6.07; outcome: inactive

For LOC401410 (retired record) #2, what does the deposit list?
G2 robust z-score: -0.764; G2 cells, % of GMNN control: -2.41; outcome: inactive

For LOC401410 (retired record) #3, what was measured?
G2 robust z-score: 2.58; G2 cells, % of GMNN control: 21.1; outcome: inactive

With ABHD12B #1, how do the results read?
G2 robust z-score: 0.206; G2 cells, % of GMNN control: 4.41; outcome: inactive

What did the screen give for ABHD12B #2?
G2 robust z-score: 1.65; G2 cells, % of GMNN control: 14.5; outcome: inactive

What did the screen give for ABHD12B #3?
G2 robust z-score: 0.0829; G2 cells, % of GMNN control: 3.55; outcome: inactive

3 entries from above, arranged by “G2 robust z-score”, highest first:
ABHD12B #2 → G2 robust z-score: 1.65; G2 cells, % of GMNN control: 14.5; outcome: inactive
ABHD12B #1 → G2 robust z-score: 0.206; G2 cells, % of GMNN control: 4.41; outcome: inactive
ABHD12B #3 → G2 robust z-score: 0.0829; G2 cells, % of GMNN control: 3.55; outcome: inactive

The results go on.
With ZKSCAN4 #1, what does the deposit list?
G2 robust z-score: -0.912; G2 cells, % of GMNN control: -3.45; outcome: inactive

What did the screen give for ZKSCAN4 #2?
G2 robust z-score: 0.00118; G2 cells, % of GMNN control: 2.98; outcome: inactive

What did the screen give for ZKSCAN4 #3?
G2 robust z-score: 1.09; G2 cells, % of GMNN control: 10.7; outcome: inactive

For MAP3K2 #1, how do the results read?
G2 robust z-score: 3.03; G2 cells, % of GMNN control: 24.3; outcome: inactive

With MAP3K2 #2, how do the results read?
G2 robust z-score: 0.37; G2 cells, % of GMNN control: 5.57; outcome: inactive

Which result is listed for MAP3K2 #3?
G2 robust z-score: -1; G2 cells, % of GMNN control: -4.07; outcome: inactive

For KLHL2 #1, what does the deposit list?
G2 robust z-score: 0.724; G2 cells, % of GMNN control: 8.06; outcome: inactive

For KLHL2 #2, what does the deposit list?
G2 robust z-score: 0.265; G2 cells, % of GMNN control: 4.83; outcome: inactive

How did the screen score KLHL2 #3?
G2 robust z-score: -0.0923; G2 cells, % of GMNN control: 2.32; outcome: inactive
